Source: PubChem BioAssay AID720505 (Drosophila RNAi Screening Center, 2013)
Purpose: 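Genes needed for store-operated calcium entry in fly cells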 (primary screen). System: Drosophila S2R+ cells. Reagent: long dsRNA against Drosophila genes. Challenge: thapsigargin (2 µM) in calcium-free buffer to empty internal stores, then 2 mM calcium added back. Read-out: 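Fluo-4 signal in 384-well plates read on a FLIPR after thapsigargin (2 µM, calcium-free) store depletion and 2 mM calcium add-back; unnormalised mean endpoint per well; screen run twice, selected wells retested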. Scale: calcium signal and retest calcium signal: higher = more calcium entry after store depletion. Hit rule: 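Knock-downs counted as hits when calcium entry dropped relative to STIM1 positive and Rho1 negative controls present on each plate; roughly 1500 genes called, with reductions of differing size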. Meaning of the calls: active = called as lowering calcium entry; inactive = not called.
The deposit covers about 20,000 reagents; shown is a random part of those with a known target gene and a result. Of all reagents, about 2,100 (10%) were called active. 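Raw plate signals without normalisation; calls rest on control-based scores that were not deposited; replicate 2 separates called from uncalled poorly.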 A plus sign joins genes that one reagent is predicted to hit. Not given: the amount of reagent, the time to read-out.

Target gene	DRSC id	calcium signal, replicate 1	calcium signal, replicate 2	retest calcium signal, replicate 1	retest calcium signal, replicate 2	activity call
sala + CG43355	DRSC01188	199	102	73.6	100	inactive
sala + CG43355	DRSC03605	161	190			inactive
JhI-21 (Juvenile hormone Inducible-21)	DRSC02161	112	98.2			inactive
CG2574	DRSC19862	66.6	92.5			active
CG16820	DRSC02522	114	92.9			inactive
Cdc27 (Cell division cycle 27)	DRSC11112	47.7	67			active
Odj (Oddjob)	DRSC16234	140	240			inactive
CG1529	DRSC20515	153	105	6145	115	inactive
RpS26 (Ribosomal protein S26)	DRSC03420	73	86.8			active
Dscam4 (Down syndrome cell adhesion molecule 4)	DRSC08913					inactive
Dscam4 (Down syndrome cell adhesion molecule 4)	DRSC10031	67.9	50.5			inactive
Dscam4 (Down syndrome cell adhesion molecule 4)	DRSC10329	62.7	39.5			active
Dscam4 (Down syndrome cell adhesion molecule 4)	DRSC10765	102	86.5			inactive
CG7768	DRSC10914	76.9	121			inactive
CG5131	DRSC02817	116	94.4			inactive
Send2 (Spermathecal endopeptidase 2)	DRSC01906	74.4	116			active
ph-p (polyhomeotic proximal)	DRSC18820	118	123			inactive
CG14223	DRSC19580	212	84.7			inactive
CG10559	DRSC14255	210	109			inactive
COX7B (Cytochrome c oxidase subunit 7B)	DRSC10895	65.6	102			inactive
CG31898	DRSC01019	183	87.5			inactive
CG16723	DRSC15138	141	99.4			inactive
CG42324	DRSC08431	110	93			inactive
CG42324	DRSC08432	88.7	93.5			inactive
faf (fat facets)	DRSC16942	73.2	105			inactive
CG30395	DRSC03896	85.6	4094			inactive
IFT57 (Intraflagellar transport 57)	DRSC00720	181	115			inactive
CG15330	DRSC18014	149	119			inactive
nan (nanchung)	DRSC10551	80.6	157			inactive
CG10073	DRSC05961	132	146			inactive
CG17974	DRSC04299	202	136			inactive
CysRS-m (Cysteinyl-tRNA synthetase, mitochondrial)	DRSC07129	160	156			inactive
CG15269	DRSC01942	113	141			inactive
meru	DRSC09400					active
meru	DRSC09899	102	145			inactive
meru	DRSC10215	99.8	136			inactive
sax (saxophone)	DRSC07675	140	94.9			inactive
CG11656	DRSC14338	106	102			inactive
Regnase-1 (Regnase 1)	DRSC14278	117	223			inactive
CG14708	DRSC14930	141	100			inactive
CG5849	DRSC15893	161	113			inactive

Next part (5 carried over from the part before).
Target gene	DRSC id	calcium signal, replicate 1	calcium signal, replicate 2	retest calcium signal, replicate 1	retest calcium signal, replicate 2	activity call
sax (saxophone)	DRSC07675	140	94.9			inactive
CG11656	DRSC14338	106	102			inactive
Regnase-1 (Regnase 1)	DRSC14278	117	223			inactive
CG14708	DRSC14930	141	100			inactive
CG5849	DRSC15893	161	113			inactive
S-Lap7 (Sperm-Leucylaminopeptidase 7)	DRSC06374	131	133			inactive
fit (female-specific independent of transformer)	DRSC15280	285	181			inactive
CG15576	DRSC18064	152	106			inactive
be (ben)	DRSC19607	103	91.6			inactive
be (ben)	DRSC19944	85.9	103			inactive
be (ben)	DRSC19945	87	107			inactive
SkpD (SKP1-related D)	DRSC22208	93.7	211			inactive
CG2246	DRSC15433	86	165			inactive
CG13601	DRSC14604	210	296			inactive
CG12692	DRSC17881	172	128			inactive
Cyp6a19 (Cytochrome P450 6a19)	DRSC07379	134	87.6			inactive
CG30178	DRSC21911	79	183			inactive
CR33283 (pseudo)	DRSC22918	139	199			inactive
Nfs1 (Nfs1 cysteine desulfurase)	DRSC02154	100	96.1			inactive
CG31601	DRSC03678	120	7655			inactive
Sec10 (Secretory 10)	DRSC17053	146	166			inactive
Mgtor (Megator)	DRSC05958	172	136			inactive
CG4210	DRSC15551	101	167			inactive
CG30148	DRSC06391	132	154			inactive
CG43367	DRSC08299	103	97.5			inactive
CG43367	DRSC08301	94.4	119			inactive
CG43367	DRSC08309	93.4	85.5			inactive
stx (stuxnet)	DRSC18442	122	98.4			inactive
stx (stuxnet)	DRSC18443	129	131			inactive
stx (stuxnet)	DRSC23075	98.3	99.2			inactive
ath (athos)	DRSC02788	148	174			inactive
HSPC300 (Haematopoietic stem/progenitor cell protein 300)	DRSC22880	88	104			inactive
stwl (stonewall)	DRSC11400	94.5	111			inactive
CG31200	DRSC15285	137	166			inactive
Acp26Aa (Accessory gland protein 26Aa)	DRSC01855	199	99.6			inactive
CG30447	DRSC05820	122	81			inactive
CG30109	DRSC05675	74.2	112			active
Liprin-alpha	DRSC02132	114	142			inactive
CG15023	DRSC08477	73.9	72.2			inactive
CG6380	DRSC02950	132	103			inactive
CG3999	DRSC15534	112	114			inactive
Pdfr (Pigment-dispersing factor receptor)	DRSC18614	82.6	109			inactive
asRNA:CR43476 + CG42534	DRSC23246	93.7	145			inactive
geminin	DRSC04984	103	194			inactive
CG2258	DRSC18222	118	94.7			inactive
CG31365	DRSC15610	150	249			inactive
Mettl14 (Methyltransferase like 14)	DRSC03073	119	139			inactive
